# Test results published in the supplement of paper PMC6411743.
# Protein sequences, listed by entry. Tags and fused reporters are not part of them. Lines headed by an entry give the natural chain unless they say otherwise; changes in a name come on top.
# UniProt Q7Z7L1: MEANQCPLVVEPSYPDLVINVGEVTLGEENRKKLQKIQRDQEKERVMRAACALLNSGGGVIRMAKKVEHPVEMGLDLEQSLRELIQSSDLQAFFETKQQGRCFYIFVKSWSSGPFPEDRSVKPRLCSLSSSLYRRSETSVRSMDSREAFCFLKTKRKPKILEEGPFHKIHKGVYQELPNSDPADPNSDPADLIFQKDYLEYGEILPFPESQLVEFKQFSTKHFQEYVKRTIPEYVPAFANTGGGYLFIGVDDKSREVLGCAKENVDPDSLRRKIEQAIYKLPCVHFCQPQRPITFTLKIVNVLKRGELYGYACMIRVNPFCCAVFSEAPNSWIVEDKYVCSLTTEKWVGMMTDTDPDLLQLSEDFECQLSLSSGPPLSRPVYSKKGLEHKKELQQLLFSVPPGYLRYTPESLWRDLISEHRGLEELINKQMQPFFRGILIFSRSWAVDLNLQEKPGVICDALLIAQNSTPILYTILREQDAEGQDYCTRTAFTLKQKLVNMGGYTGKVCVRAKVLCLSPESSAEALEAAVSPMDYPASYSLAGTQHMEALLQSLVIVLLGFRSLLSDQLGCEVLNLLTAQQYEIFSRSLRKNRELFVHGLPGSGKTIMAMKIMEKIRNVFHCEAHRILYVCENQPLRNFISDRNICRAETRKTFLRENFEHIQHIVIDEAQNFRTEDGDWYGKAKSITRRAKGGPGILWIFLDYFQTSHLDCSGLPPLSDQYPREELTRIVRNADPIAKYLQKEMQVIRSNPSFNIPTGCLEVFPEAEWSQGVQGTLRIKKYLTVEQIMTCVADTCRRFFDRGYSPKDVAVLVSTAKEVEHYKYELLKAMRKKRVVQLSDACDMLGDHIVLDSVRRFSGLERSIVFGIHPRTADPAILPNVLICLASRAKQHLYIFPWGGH
# UniProt Q86V48: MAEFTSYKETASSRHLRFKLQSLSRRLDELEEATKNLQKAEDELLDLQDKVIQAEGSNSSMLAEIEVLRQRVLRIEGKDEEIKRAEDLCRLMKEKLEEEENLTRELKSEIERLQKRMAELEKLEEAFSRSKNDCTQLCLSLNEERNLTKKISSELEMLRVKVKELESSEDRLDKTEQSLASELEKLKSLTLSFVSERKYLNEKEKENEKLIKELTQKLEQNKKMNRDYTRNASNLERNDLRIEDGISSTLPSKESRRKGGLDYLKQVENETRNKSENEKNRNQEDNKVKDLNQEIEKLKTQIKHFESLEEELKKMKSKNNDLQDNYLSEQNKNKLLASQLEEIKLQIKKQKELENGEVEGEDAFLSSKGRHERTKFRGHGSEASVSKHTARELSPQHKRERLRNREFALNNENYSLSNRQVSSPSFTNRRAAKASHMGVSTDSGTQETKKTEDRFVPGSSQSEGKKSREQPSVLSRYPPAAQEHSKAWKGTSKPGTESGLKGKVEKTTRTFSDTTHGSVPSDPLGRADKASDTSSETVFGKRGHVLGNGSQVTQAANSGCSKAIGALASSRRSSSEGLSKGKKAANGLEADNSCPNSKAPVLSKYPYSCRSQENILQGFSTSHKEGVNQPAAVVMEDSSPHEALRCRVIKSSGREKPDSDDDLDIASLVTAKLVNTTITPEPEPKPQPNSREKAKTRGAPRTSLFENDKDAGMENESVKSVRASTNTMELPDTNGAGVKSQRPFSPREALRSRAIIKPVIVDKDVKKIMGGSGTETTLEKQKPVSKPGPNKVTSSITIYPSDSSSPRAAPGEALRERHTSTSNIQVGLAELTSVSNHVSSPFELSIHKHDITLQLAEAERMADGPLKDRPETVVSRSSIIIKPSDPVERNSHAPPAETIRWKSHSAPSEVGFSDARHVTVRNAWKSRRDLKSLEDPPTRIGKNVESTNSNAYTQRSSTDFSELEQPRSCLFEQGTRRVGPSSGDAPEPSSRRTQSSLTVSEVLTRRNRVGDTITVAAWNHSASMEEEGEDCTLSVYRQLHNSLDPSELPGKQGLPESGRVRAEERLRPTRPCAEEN
# UniProt Q8N3X1: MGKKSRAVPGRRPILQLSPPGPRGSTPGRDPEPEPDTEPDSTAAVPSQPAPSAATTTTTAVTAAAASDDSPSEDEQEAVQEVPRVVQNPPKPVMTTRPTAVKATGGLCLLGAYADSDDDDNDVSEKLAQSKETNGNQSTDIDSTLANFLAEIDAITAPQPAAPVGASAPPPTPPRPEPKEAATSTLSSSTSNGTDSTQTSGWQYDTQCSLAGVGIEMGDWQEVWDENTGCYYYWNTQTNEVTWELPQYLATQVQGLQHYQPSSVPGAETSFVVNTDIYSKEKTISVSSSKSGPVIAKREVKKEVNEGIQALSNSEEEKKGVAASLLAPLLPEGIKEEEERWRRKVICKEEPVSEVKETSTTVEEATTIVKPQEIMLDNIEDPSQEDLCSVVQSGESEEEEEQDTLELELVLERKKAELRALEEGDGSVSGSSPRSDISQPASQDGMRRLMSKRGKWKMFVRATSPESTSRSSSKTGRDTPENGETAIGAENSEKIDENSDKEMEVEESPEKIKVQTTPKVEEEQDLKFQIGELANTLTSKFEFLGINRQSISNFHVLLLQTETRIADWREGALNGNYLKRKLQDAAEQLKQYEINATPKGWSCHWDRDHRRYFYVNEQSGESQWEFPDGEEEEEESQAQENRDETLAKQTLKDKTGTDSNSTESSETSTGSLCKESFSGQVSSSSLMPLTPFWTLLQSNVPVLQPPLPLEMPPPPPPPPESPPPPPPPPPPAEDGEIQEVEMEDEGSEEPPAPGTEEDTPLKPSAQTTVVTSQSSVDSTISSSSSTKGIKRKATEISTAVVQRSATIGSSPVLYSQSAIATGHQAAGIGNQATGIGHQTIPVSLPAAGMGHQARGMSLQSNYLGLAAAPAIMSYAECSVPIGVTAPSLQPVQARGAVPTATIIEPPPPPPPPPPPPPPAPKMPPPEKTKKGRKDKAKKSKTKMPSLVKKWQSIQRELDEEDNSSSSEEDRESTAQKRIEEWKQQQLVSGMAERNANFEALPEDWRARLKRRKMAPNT
# UniProt Q8IU81: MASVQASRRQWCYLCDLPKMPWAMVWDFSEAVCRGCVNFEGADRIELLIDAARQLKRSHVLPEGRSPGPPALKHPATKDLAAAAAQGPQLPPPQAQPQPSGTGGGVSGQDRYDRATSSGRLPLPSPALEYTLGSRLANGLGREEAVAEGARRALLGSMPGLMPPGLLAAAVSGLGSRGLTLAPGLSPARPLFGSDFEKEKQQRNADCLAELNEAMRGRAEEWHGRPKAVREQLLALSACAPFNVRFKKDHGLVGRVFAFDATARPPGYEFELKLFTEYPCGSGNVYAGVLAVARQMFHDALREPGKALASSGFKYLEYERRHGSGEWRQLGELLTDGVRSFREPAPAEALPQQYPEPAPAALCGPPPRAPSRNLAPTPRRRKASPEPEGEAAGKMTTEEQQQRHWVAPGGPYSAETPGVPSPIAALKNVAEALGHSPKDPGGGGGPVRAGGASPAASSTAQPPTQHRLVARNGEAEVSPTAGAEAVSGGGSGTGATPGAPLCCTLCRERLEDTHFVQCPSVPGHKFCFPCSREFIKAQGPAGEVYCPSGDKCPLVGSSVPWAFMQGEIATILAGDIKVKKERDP
# UniProt Q8IUH4: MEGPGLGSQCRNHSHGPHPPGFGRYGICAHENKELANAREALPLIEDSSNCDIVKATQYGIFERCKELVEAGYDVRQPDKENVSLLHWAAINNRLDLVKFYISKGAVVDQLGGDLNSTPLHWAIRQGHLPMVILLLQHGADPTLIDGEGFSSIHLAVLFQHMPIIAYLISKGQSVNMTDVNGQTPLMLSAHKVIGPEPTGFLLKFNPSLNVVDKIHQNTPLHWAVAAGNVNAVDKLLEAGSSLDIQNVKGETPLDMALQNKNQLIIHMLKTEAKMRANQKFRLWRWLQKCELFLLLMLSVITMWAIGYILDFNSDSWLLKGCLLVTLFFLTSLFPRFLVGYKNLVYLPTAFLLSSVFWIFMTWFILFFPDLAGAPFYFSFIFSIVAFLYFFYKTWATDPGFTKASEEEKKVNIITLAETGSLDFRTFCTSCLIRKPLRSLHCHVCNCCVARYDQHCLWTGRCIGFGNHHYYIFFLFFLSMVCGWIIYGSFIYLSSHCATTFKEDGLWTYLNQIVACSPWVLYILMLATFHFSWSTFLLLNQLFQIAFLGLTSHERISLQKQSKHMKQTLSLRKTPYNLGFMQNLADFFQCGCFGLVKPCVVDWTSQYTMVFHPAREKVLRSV
# UniProt Q8IZM8: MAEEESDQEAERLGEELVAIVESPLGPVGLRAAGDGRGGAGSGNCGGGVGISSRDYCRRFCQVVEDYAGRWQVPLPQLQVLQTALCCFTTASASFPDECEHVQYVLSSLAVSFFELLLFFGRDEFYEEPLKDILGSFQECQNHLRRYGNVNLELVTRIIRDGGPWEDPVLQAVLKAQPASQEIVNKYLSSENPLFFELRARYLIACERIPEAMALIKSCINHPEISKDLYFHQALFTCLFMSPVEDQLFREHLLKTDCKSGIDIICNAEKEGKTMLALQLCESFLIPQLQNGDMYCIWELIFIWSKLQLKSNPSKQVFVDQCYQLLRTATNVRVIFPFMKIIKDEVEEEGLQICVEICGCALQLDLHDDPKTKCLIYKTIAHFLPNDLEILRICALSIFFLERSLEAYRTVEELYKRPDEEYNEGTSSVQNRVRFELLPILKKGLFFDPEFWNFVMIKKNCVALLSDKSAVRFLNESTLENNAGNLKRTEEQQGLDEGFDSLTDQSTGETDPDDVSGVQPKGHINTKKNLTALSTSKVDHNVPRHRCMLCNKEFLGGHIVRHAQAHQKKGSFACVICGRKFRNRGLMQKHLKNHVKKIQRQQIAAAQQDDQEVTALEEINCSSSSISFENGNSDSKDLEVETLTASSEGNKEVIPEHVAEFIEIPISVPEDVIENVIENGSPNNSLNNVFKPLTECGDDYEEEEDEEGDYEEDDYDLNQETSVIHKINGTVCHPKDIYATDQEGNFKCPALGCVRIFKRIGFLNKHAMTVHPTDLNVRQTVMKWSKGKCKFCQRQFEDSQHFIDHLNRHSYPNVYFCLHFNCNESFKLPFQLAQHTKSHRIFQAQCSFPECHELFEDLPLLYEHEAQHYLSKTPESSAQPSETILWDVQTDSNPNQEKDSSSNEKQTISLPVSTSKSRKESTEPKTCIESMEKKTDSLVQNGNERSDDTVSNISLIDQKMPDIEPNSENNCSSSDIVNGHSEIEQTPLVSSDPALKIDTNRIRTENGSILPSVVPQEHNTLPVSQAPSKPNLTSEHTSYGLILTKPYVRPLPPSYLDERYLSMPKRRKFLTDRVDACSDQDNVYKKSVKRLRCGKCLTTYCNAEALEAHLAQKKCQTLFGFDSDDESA
# UniProt Q8IYA6: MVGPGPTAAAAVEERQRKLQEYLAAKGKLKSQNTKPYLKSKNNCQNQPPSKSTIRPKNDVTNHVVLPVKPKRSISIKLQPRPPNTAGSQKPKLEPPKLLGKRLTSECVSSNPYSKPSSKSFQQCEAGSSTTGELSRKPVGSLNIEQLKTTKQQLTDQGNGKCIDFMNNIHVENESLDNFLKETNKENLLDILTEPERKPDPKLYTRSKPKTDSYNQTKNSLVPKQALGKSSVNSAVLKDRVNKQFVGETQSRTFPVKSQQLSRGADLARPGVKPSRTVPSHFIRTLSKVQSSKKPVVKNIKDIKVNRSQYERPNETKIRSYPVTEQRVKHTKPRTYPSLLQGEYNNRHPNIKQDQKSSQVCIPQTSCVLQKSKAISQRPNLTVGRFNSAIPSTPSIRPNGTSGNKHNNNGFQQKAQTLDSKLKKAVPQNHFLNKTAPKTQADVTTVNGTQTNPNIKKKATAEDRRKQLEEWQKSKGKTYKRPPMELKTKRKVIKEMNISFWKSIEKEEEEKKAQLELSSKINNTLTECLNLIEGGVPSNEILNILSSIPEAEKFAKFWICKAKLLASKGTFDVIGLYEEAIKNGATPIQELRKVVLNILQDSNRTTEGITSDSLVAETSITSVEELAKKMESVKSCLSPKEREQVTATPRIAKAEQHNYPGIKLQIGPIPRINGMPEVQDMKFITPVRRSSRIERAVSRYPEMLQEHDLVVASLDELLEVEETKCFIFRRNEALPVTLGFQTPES
# UniProt Q86V59: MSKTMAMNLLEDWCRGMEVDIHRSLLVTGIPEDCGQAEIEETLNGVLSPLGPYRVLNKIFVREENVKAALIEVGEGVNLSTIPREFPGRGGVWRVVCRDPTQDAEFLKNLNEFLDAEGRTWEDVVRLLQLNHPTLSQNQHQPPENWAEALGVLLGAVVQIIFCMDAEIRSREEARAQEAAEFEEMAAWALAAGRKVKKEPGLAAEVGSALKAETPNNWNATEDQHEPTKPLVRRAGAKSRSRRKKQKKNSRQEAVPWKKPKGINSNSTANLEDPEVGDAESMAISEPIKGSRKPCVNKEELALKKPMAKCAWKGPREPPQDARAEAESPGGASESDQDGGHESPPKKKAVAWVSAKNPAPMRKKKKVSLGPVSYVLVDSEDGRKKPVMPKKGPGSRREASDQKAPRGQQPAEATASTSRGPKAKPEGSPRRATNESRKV
# ± gives the standard deviation of the averaged measurements. The entries are a selection whose mix differs from that of the whole data set. Most entries show no effect beyond the scatter of the controls.
# Compound: Nc1ncnc2c1ncn2[C@@H]1O[C@H](COP(=O)(O)OP(=O)(O)NP(=O)(O)O)[C@@H](O)[C@H]1O [adenylyl imidodiphosphate]
# Assay: NP40-soluble protein abundance relative to vehicle (solubility fold change) (ratio); higher = more soluble protein in presence of AMP-PNP
# Method in brief: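 Crude Jurkat lysate, prepared by Dounce homogenisation, was exposed to eight concentrations from 0.1 to 10 mM for 10 min at room temperature and then 3 min at 37 °C. Solubilisation used 0.8% NP40 with benzonase for 60 min at 4 °C, followed by ultracentrifugation and TMT labelling of the supernatant for LC-MS/MS. After vsn normalisation of intensities, each value is the fold change against the detergent-processed vehicle within each replicate, across three independent experiments.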
target,measurement,setting,value
UBR1 (UniProt Q8IWV7),NP40-soluble protein abundance,concentration: 0.1mM,1.02 ± 0.031
same,NP40-soluble protein abundance,concentration: 0.5mM,1.01 ± 0.059
SLFN11 (UniProt Q7Z7L1),NP40-soluble protein abundance,concentration: 0.1mM,1.08 ± 0.02
same,NP40-soluble protein abundance,concentration: 0.5mM,1.078 ± 0.0031
UniProt Q86U70 and related entries,NP40-soluble protein abundance,concentration: 0.1mM,0.989 ± 0.019
same,NP40-soluble protein abundance,concentration: 0.5mM,0.967 ± 0.031
UniProt Q86WA8 and related entries,NP40-soluble protein abundance,concentration: 0.1mM,0.993 ± 0.032
same,NP40-soluble protein abundance,concentration: 0.5mM,0.996 ± 0.022
UniProt Q86V48 and related entries,NP40-soluble protein abundance,concentration: 0.1mM,0.98 ± 0.021
same,NP40-soluble protein abundance,concentration: 0.5mM,1.02 ± 0.043
RCOR2 (UniProt Q8IZ40),NP40-soluble protein abundance,concentration: 0.1mM,1.01 ± 0.046
same,NP40-soluble protein abundance,concentration: 0.5mM,0.987 ± 0.048
UniProt Q8NBP0 and related entries,NP40-soluble protein abundance,concentration: 0.1mM,1 ± 0.024
same,NP40-soluble protein abundance,concentration: 0.5mM,0.979 ± 0.017
UniProt Q86XP3 and related entries,NP40-soluble protein abundance,concentration: 0.1mM,1.02 ± 0.012
same,NP40-soluble protein abundance,concentration: 0.5mM,0.999 ± 0.017
ANKRD13A (UniProt Q8IZ07),NP40-soluble protein abundance,concentration: 0.1mM,0.985 ± 0.034
same,NP40-soluble protein abundance,concentration: 0.5mM,0.996 ± 0.057
UniProt Q86TI0 and related entries,NP40-soluble protein abundance,concentration: 0.1mM,1.04 ± 0.011
same,NP40-soluble protein abundance,concentration: 0.5mM,1.01 ± 0.033
UniProt Q8N3X1 and related entries,NP40-soluble protein abundance,concentration: 0.1mM,0.983 ± 0.028
same,NP40-soluble protein abundance,concentration: 0.5mM,1.04 ± 0.045
IRF2BP1 (UniProt Q8IU81),NP40-soluble protein abundance,concentration: 0.1mM,0.986 ± 0.015
same,NP40-soluble protein abundance,concentration: 0.5mM,0.9641 ± 0.0091
UniProt Q86UX7 and related entries,NP40-soluble protein abundance,concentration: 0.1mM,1.04 ± 0.037
same,NP40-soluble protein abundance,concentration: 0.5mM,0.998 ± 0.11
UniProt Q8IUH4 and related entries,NP40-soluble protein abundance,concentration: 0.1mM,1 ± 0.056
same,NP40-soluble protein abundance,concentration: 0.5mM,0.963 ± 0.065
UniProt Q8N2K0 and related entries,NP40-soluble protein abundance,concentration: 0.1mM,1.05 ± 0.019
same,NP40-soluble protein abundance,concentration: 0.5mM,1.05 ± 0.016
UniProt Q8IZM8,NP40-soluble protein abundance,concentration: 0.1mM,1 ± 0.029
same,NP40-soluble protein abundance,concentration: 0.5mM,0.998 ± 0.037
UniProt Q86V88 and related entries,NP40-soluble protein abundance,concentration: 0.1mM,0.9882 ± 0.0098
same,NP40-soluble protein abundance,concentration: 0.5mM,0.987 ± 0.013
CKAP2L (UniProt Q8IYA6),NP40-soluble protein abundance,concentration: 0.1mM,1.01 ± 0.022
same,NP40-soluble protein abundance,concentration: 0.5mM,0.989 ± 0.022
ZC3H3 (UniProt Q8IXZ2),NP40-soluble protein abundance,concentration: 0.1mM,1.03 ± 0.031
same,NP40-soluble protein abundance,concentration: 0.5mM,0.97808 ± 0.00093
FTSJ3 (UniProt Q8IY81),NP40-soluble protein abundance,concentration: 0.1mM,0.982 ± 0.026
same,NP40-soluble protein abundance,concentration: 0.5mM,1 ± 0.058
UniProt Q8NB78,NP40-soluble protein abundance,concentration: 0.1mM,1 ± 0.041
same,NP40-soluble protein abundance,concentration: 0.5mM,0.962 ± 0.021
KIAA0319L (UniProt Q8IZA0),NP40-soluble protein abundance,concentration: 0.1mM,0.982 ± 0.023
same,NP40-soluble protein abundance,concentration: 0.5mM,0.99 ± 0.032
UniProt Q86V59 and related entries,NP40-soluble protein abundance,concentration: 0.1mM,0.999 ± 0.018
same,NP40-soluble protein abundance,concentration: 0.5mM,1.02 ± 0.041
UniProt Q8IW35 and related entries,NP40-soluble protein abundance,concentration: 0.1mM,0.998 ± 0.023
same,NP40-soluble protein abundance,concentration: 0.5mM,0.984 ± 0.024
ZADH2 (UniProt Q8N4Q0),NP40-soluble protein abundance,concentration: 0.1mM,1.02 ± 0.044
same,NP40-soluble protein abundance,concentration: 0.5mM,0.987 ± 0.071
UniProt Q8N5G2,NP40-soluble protein abundance,concentration: 0.1mM,0.962 ± 0.043
same,NP40-soluble protein abundance,concentration: 0.5mM,0.946 ± 0.04
TMEM102 (UniProt Q8N9M5),NP40-soluble protein abundance,concentration: 0.1mM,1 ± 0.057
same,NP40-soluble protein abundance,concentration: 0.5mM,1.03 ± 0.069
ZNF579 (UniProt Q8NAF0),NP40-soluble protein abundance,concentration: 0.1mM,0.9873 ± 0.0028
same,NP40-soluble protein abundance,concentration: 0.5mM,1.01 ± 0.029
UniProt Q8IZ81 and related entries,NP40-soluble protein abundance,concentration: 0.1mM,0.955 ± 0.029
same,NP40-soluble protein abundance,concentration: 0.5mM,0.982 ± 0.053

# Three entries from above, tab-delimited.
target	measurement	setting	value
UniProt Q86V48 and related entries	NP40-soluble protein abundance	concentration: 0.5mM	1.02 ± 0.043
UniProt Q8NBP0 and related entries	NP40-soluble protein abundance	concentration: 0.1mM	1 ± 0.024
UniProt Q8N3X1 and related entries	NP40-soluble protein abundance	concentration: 0.1mM	0.983 ± 0.028
